Results taken from PubChem BioAssay AID2517 (National Center for Advancing Translational Sciences (NCATS), 2010).
“And” between values parts separate entries of the source, which are not always exact repeats. Identical values can stand only once. The whole screen tested about 350,000 compounds, of which about 1,200 (0.34%) were called active. Inconclusive means that the source gave no clear call. Such entries were picked first, then a sample of the others. Calls follow the shape of the dose curve; as a rule, active = well fitted inhibition curve with a large enough effect; inconclusive = small, poorly fitted or top-dose-only effect; inactive = no such curve, though single readings can be large or run the other way. Potencies beside an inconclusive call are fits to weak or partial responses and may not hold up. The source holds several records for some structures; these can differ, active in one and inactive in another.

Chains of the proteins cited; added tags and fusions are not shown.
UniProt P27695, whole entry, looked up: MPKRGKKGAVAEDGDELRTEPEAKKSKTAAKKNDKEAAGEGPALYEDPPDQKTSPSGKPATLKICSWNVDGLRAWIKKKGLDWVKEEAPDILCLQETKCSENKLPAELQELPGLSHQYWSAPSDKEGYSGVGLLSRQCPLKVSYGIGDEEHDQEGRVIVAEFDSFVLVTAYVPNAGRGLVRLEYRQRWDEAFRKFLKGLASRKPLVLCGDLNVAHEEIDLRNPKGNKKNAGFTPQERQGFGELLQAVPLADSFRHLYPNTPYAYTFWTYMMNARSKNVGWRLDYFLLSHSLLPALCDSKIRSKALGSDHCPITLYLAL

target: DNA repair nuclease/redox regulator APEX1 (Homo sapiens) (UniProt P27695); assay: qHTS Assay for Inhibitors of the Human Apurinic/apyrimidinic Endonuclease 1 (APE1); conditions: recombinant APE1, TAMRA/BHQ-2 abasic DNA cleavage fluorescence; series mostly up to 65.8 µM; also: nearly all actives have a fitted effect of over 55% in size
How it was run: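 Measures dequenching upon AP-site incision of a 5'-TAMRA/3'-BHQ-2 THF-containing duplex, 50 nM; human APE1 0.75 nM after 15 min room-temperature exposure to compound; kinetic three-point read at one-minute spacing.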
Potency is read from the fitted curve at half-maximal effect.

Structure (SMILES)	Potency
O=C1NC(=O)N(Cc2ccc(F)cc2)C(=O)/C1=C\C=C\c1ccco1	inconclusive: 39.8 µM [inhibitor, single point]
CCCCC/C=C\C/C=C\C/C=C\C/C=C\CCCC(=O)O	inconclusive: 12.6 µM [inhibitor, partial curve]
FC(F)(F)c1cccc(C2=CCN(CCc3ccc4ccccc4c3)CC2)c1	inconclusive: 17.8 µM [inhibitor, single point]
C[C@]1(Cn2ccnn2)[C@H](C(=O)O)N2C(=O)C[C@H]2S1(=O)=O	inconclusive: 44.7 µM [inhibitor, single point]
Cc1onc(-c2c(Cl)cccc2Cl)c1C(=O)Nc1ccc2c(C(F)(F)F)cc(=O)oc2c1	inconclusive: 3.98 µM [inhibitor, partial curve]
COCCN(C(=O)CCl)c1c(C)cccc1C	inconclusive: 8.91 µM [inhibitor, single point]
CCOC(=O)C1=C(N)OC2=C(C(=O)CCC2)[C@]12C(=O)N(CC(N)=O)c1ccccc12	inconclusive: 39.8 µM [inhibitor, single point]
O=C(Nc1ccccc1-c1ccc(Cl)cc1)c1cccnc1Cl	inconclusive: 7.94 µM [inhibitor, single point]
Nc1ccc(CCN2CCN(c3cccc(C(F)(F)F)c3)CC2)cc1	inconclusive: 3.55 µM [inhibitor, single point]
O=C(CN1C(=O)S/C(=C\C=C\c2ccccc2)C1=O)Nc1ccccc1C(=O)O	inactive
COc1ccccc1-n1c(O)c(/C=N/NC(=S)Nc2ccccc2)c(=O)[nH]c1=S	inactive
CC(C)c1ccc(N2C(=O)NC(=O)/C(=C/C=C/c3ccco3)C2=O)cc1	inconclusive: 44.7 µM [inhibitor, single point]
CCCCCCn1c(O)c(C=Nc2ccccc2N2CCOCC2)c(=O)[nH]c1=S	inconclusive: 3.98 µM [inhibitor, partial curve]
CCCCOc1ccc(CC2C(=O)N(C)C(=O)N(C)C2=O)cc1	inactive
O=C1NC(=O)N(Cc2ccccc2Cl)C(=O)/C1=C/c1cccs1	inactive
Cc1cccc(C)c1O	inactive
C=C(C)[C@@]12OC3(c4ccccc4)O[C@@H]1[C@@H]1[C@@H]4O[C@]4(CO)[C@@H](O)[C@]4(O)C(=O)C(C)=C[C@H]4[C@@]1(O3)[C@H](C)[C@H]2OC(=O)/C=C/C=C/c1ccccc1	inconclusive: 11.2 µM [inhibitor, partial curve]
Cc1ccc(/C=C2\C(=O)NC(=O)N(CC3CCCO3)C2=O)s1 (centres undefined)	inconclusive: 39.8 µM [inhibitor, single point]
COc1ccc(C2Oc3c(I)c(OC)cc(OC)c3CC2O)cc1OC (centres undefined)	inconclusive: 44.7 µM [inhibitor, single point]
O=c1oc2ccccc2c(O)c1C(c1ccc([N+](=O)[O-])cc1)c1c(O)c2ccccc2oc1=O	inconclusive: 20 µM [inhibitor, partial curve]
c1ccc2c(CCNCc3ccc4c(c3)OCO4)c[nH]c2c1	inactive
COc1ccccc1Cn1c(SCC(=O)C(C)(C)C)nc2cc(C(=O)N3CCC4(CC3)OCCO4)ccc2c1=O	inconclusive: 0.282 µM [inhibitor, partial curve]

Structure (SMILES)	Potency
COc1cccc(CNCCc2c[nH]c3ccccc23)c1OC	inconclusive: 25.1 µM [inhibitor, partial curve, poor fit]
Nc1ccc2c3c(cccc13)CC2	inconclusive: 44.7 µM [inhibitor, single point]
N/C(=N\N=C/c1ccc(-c2ccc(O)c(C(=O)O)c2)o1)N[N+](=O)[O-]	active: 7.94 µM
CCC(C=C[C@@H]1OC(=O)C=C[C@H]1C)=C[C@H](C)CC=CC(C)=C[C@@H](C)C(=O)[C@@H](C)[C@H](O)[C@@H](C)CC(C)=CC(=O)O	inconclusive: 1.12 µM [inhibitor, single point]
Cc1c(C(c2ccc(F)cc2)c2c(O)c3ccccc3oc2=O)c(=O)n(-c2ccccc2)n1C (centres undefined)	inactive
COC(=O)c1c(C)[nH]c(C(=O)C(Cc2ccccc2)N(C)C)c1C (centres undefined)	inconclusive: 1.26 µM [inhibitor, full curve]
Cc1ccc(S(=O)(=O)Cc2ccc(C(=O)N3CCC4(CC3)OCCO4)o2)cc1	inconclusive: 14.1 µM [inhibitor, partial curve]
O=[N+]([O-])c1ccc(CN2CCN(c3ccc(Cl)cc3)CC2)o1	inconclusive: 37.7 µM [inhibitor, single point]
CCOc1ccc(C2CC(c3c(O)n(C)c(=O)n(C)c3=O)=NN2)cc1 (centres undefined)	inconclusive: 39.8 µM [inhibitor, single point]
CON(C)C(=O)Nc1ccc(Cl)cc1	inactive
NC1C=CC=C(C(=O)O)C1 (centres undefined)	active: 12.6 µM
CCOC(=O)C(O)(c1ccc(NC(=S)NC(=O)c2ccc(Cl)cc2Cl)c(C)c1)C(F)(F)F (centres undefined)	inconclusive: 15.8 µM [inhibitor, partial curve, poor fit]
Nc1ncnc2c1nc(Sc1ccc(Cl)cc1)n2[C@@H]1O[C@@H]2COP(O)(=S)O[C@H]2[C@H]1O (some centres undefined)	inconclusive: 14.1 µM [inhibitor, partial curve]
Cc1ccc(C2N(c3ccccn3)C(=O)C3CCCN32)o1 (centres undefined)	inconclusive: 28.2 µM [inhibitor, single point]
CCN(CC)c1nc(C)cc(OP(=S)(OC)OC)n1	inactive
CCN(C(=O)CN1CC=C(c2ccccc2)CC1)c1c(N)n(Cc2ccccc2)c(=O)[nH]c1=O	inactive
O[C@@H](Cc1ccncc1)C(Cl)(Cl)Cl	inconclusive: 44.7 µM [inhibitor, single point]
COc1cccc(C(=O)N2CCC3(CC2)OCCO3)c1	inconclusive: 8.91 µM [inhibitor, single point]
CCC(=NCc1cccnc1)c1c(O)n(-c2ccc(C)cc2)c(=O)[nH]c1=O	inconclusive: 0.005 µM [inhibitor, full curve, poor fit]
CN1CC[C@]2(c3cccc(O)c3)Cc3nc4ccccc4cc3C[C@H]2C1	inactive
c1cc(OCC2CO2)cc(OCC2CO2)c1 (centres undefined)	inconclusive: 15.8 µM [inhibitor, single point]
CCC(C)n1c(O)c(/C=N/Nc2ccccc2)c(=O)[nH]c1=S (centres undefined)	inconclusive: 44.7 µM [inhibitor, single point]

Structure (SMILES)	Potency
CC(C)(C)C(O)C(Cc1ccc(Cl)cc1Cl)n1cncn1 (centres undefined)	inconclusive: 0.0891 µM [inhibitor, partial curve]
NC[C@H](CS(=O)(=O)O)c1ccc(Cl)cc1	inconclusive: 39.8 µM [inhibitor, single point]
O=C(NCc1cccs1)c1ccc(Br)o1	inconclusive: 1.58 µM [inhibitor, partial curve]
CC(=O)OCC(=O)[C@H]1CC[C@H]2[C@@H]3CC[C@H]4C[C@H](O)CC[C@]4(C)[C@H]3C(=O)C[C@]12C	inconclusive: 8.44 µM [inhibitor, single point]
Cc1c2ccncc2c(C)c2c1[nH]c1ccccc12	inconclusive: 3.16 µM [inhibitor, full curve] and inconclusive: 4.47 µM [inhibitor, full curve] and inconclusive: 5.01 µM [inhibitor, full curve]
CN1C(=O)C(=Cc2ccc(OCC(=O)Nc3ccccc3)cc2)C(=O)N(C)C1=O	inactive
COc1ccc(C(=O)Cn2c(NCCO)nc3ccccc32)cc1	inactive
O=C1NC(=O)N(c2ccccc2)C(=O)/C1=C/C=C/c1ccco1	inconclusive: 22.4 µM [inhibitor, partial curve]
Oc1c(Cl)cc(Cl)cc1CN1CCN(Cc2ccccc2)CC1	inactive
CCCc1nc2ccccc2c(=O)n1-c1ccc(O)cc1	inactive
O=C1NC(=O)N(c2ccccc2)C(=O)/C1=C/c1ccc([N+](=O)[O-])s1	inconclusive: 35.5 µM [inhibitor, single point]
Cc1[nH]ccc2c1[nH]c1cc(=O)ccc12	inconclusive: 28.2 µM [inhibitor, partial curve] [middle of 4 runs]
C[N+]1(C)CCC(OC(=O)C(c2ccccc2)c2ccccc2)CC1	inconclusive: 44.7 µM [inhibitor, single point]
O=C1NC(=O)N(Cc2ccco2)C(=O)/C1=C\c1cccn1CCOc1ccccc1	inconclusive: 10 µM [inhibitor, partial curve]
O=C1NC(=O)N(CCC2=CCCCC2)C(=O)/C1=C/c1cccs1	inconclusive: 28.2 µM [inhibitor, partial curve]
ClC1=C(Cl)C(Cl)=C(Cl)C1=C/C=C/c1ccccc1	inconclusive: 17.8 µM [inhibitor, partial curve]
O=S(=O)(O)c1cc(N=C=S)ccc1/C=C/c1ccc(N=C=S)cc1S(=O)(=O)O	inconclusive: 31.6 µM [inhibitor, single point]
CCOC(=O)C(O)(c1ccc(NC(=O)c2ccc(Cl)c(Cl)c2)cc1)C(F)(F)F (centres undefined)	inconclusive: 3.98 µM [inhibitor, single point]
CCC(=NCc1ccco1)c1c(O)n(-c2ccccc2C)c(=O)[nH]c1=O	inconclusive: 3.16 µM [inhibitor, single point]
C=C(C)[C@H]1O[C@H]2CC[C@@]3(C)[C@@](O)(CC[C@H]4[C@@H]5OC(C)(C)[C@H]6C[C@@H]7C(=C)Cc8c(Cl)cc9[nH]c(c5c9c8[C@@]76O)[C@@]43C)[C@]23O[C@@H]3[C@H]1O	inconclusive: 44.7 µM [inhibitor, single point]
